This is an account of results in paper PMC11091344.

Sequences of proteins named here, by UniProt entry; tags and fusion partners are left off.
UniProt Q9R0P9: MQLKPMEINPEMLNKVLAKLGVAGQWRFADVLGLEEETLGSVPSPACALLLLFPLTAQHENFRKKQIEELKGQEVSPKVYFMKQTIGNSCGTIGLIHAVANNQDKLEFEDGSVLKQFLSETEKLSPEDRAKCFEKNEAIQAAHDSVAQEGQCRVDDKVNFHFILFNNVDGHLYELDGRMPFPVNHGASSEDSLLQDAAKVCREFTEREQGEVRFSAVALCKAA

No constants are given. Whether binding was seen depends on the method and setting. In cells and extracts the contact can be indirect. Some binding calls cover weakened binding; strength is not graded here. For some assays here: Sequences can lack the tags named with a protein.

The target of test [1] is T1, Metrnl, endogenous in RAW264.7 cells (mouse (endogenous in RAW264.7)) (UniProt Q8VE43).
T1 sequence: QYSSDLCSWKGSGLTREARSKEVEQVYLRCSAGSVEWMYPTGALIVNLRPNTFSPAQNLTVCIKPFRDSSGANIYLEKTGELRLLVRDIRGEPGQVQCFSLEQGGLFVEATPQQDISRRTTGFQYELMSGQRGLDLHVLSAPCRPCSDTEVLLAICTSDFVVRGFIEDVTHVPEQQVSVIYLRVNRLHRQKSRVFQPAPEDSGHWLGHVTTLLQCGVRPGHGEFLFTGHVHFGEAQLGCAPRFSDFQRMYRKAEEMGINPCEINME
The test is described as follows: co-IP; endogenous proteins of RAW264.7 cells; NP40 lysis; antibodies 6 hours, then magnetic beads (protein A/G) overnight with the supernatant; Western blot ('in vivo' Co-IP of the paper).

The target of test [2] is T2, Flag-Metrnl (Meteorin-like) (UniProt Q641Q3).
T2 sequence: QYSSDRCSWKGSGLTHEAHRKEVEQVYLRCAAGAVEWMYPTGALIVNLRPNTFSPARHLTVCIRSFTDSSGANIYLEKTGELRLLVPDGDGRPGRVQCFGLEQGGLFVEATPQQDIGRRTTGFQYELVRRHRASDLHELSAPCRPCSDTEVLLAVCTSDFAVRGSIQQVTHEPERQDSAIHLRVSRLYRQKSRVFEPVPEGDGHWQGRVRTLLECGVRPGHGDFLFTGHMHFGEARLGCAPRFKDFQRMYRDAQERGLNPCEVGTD
The test is described as follows: co-IP; HEK293T cells co-transfected with Flag-Metrnl and a Myc-tagged plasmid; NP40 lysis; magnetic beads with the supernatant overnight at 4°C; Western blot ('in vitro' Co-IP of the paper).

Turning to “UCHL1, endogenous in RAW264.7 cells (from UniProt Q9R0P9 1-223)”, the binding entry in test [1] is given as “binds”.

B1: Myc-CPT1B (protein, UniProt Q92523 1-772)
chain: MAEAHQAVAFQFTVTPDGVDFRLSREALKHVYLSGINSWKKRLIRIKNGILRGVYPGSPTSWLVVIMATVGSSFCNVDISLGLVSCIQRCLPQGCGPYQTPQTRALLSMAIFSTGVWVTGIFFFRQTLKLLLCYHGWMFEMHGKTSNLTRIWAMCIRLLSSRHPMLYSFQTSLPKLPVPRVSATIQRYLESVRPLLDDEEYYRMELLAKEFQDKTAPRLQKYLVLKSWWASNYVSDWWEEYIYLRGRSPLMVNSNYYVMDLVLIKNTDVQAARLGNIIHAMIMYRRKLDREEIKPVMALGIVPMCSYQMERMFNTTRIPGKDTDVLQHLSDSRHVAVYHKGRFFKLWLYEGARLLKPQDLEMQFQRILDDPSPPQPGEEKLAALTAGGRVEWAQARQAFFSSGKNKAALEAIERAAFFVALDEESYSYDPEDEASLSLYGKALLHGNCYNRWFDKSFTLISFKNGQLGLNAEHAWADAPIIGHLWEFVLGTDSFHLGYTETGHCLGKPNPALAPPTRLQWDIPKQCQAVIESSYQVAKALADDVELYCFQFLPFGKGLIKKCRTSPDAFVQIALQLAHFRDRGKFCLTYEASMTRMFREGRTETVRSCTSESTAFVQAMMEGSHTKADLRDLFQKAAKKHQNMYRLAMTGAGIDRHLFCLYLVSKYLGVSSPFLAEVLSEPWRLSTSQIPQSQIRMFDPEQHPNHLGAGGGFGPVADDGYGVSYMIAGENTIFFHISSKFSSSETNAQRFGNHIRKALLDIADLFQVPKAYS
For the molecule B1, in test [2], the binding entry is on record as “no binding”.
